These are yes or no findings as the source states them, for the method shown. For part of these data: Binding seen in cells or lysates may run through a third protein. Some binding calls cover weakened binding; strength is not graded here.
Assays:
[1] = target: ATG5 (endogenous, SH-SY5Y cells) (human (endogenous in SH-SY5Y)) (UniProt Q9H1Y0); assay: co-IP; endogenous proteins in HT-22 and SH-SY5Y cells; with and without mitochondrial stress in HT-22; precipitating antibody not stated
[2] = target: T1, ATG5-12 (endogenous ATG12-ATG5 conjugate of HEK 293 T cells) (human (endogenous in HEK 293 T)) (UniProt Q9H1Y0+O94817); assay: SEC; gel filtration of mitochondrial lysates of YFP-PARK2 expressing HEK 293 T cells treated with DMSO or 10 μM CCCP for 12 h; RIPA buffer, 4 °C; fractions immunoblotted
[3] = target: ATG5, full length, overexpressed in HEK293T cells (Fig. S1A and B) (human) (UniProt Q9H1Y0); assay: co-IP; HEK293T cells overexpressing the full-length proteins (Fig. S1A); also after STAURO or CCCP treatment (Fig. S1B); which protein was precipitated not given
[4] = target: T1, ATG5-12 (endogenous ATG12-ATG5 conjugate of HEK 293 T cells) (human (endogenous in HEK 293 T)); assay: SEC; gel filtration of total cell lysates and of mitochondria-free cytosolic fractions of PARK2 overexpressing cells treated with DMSO or CCCP; RIPA buffer, 4 °C; fractions immunoblotted
[5] = target: T1, ATG5-12 (endogenous ATG12-ATG5 conjugate of HEK 293 T cells) (human (endogenous in HEK 293 T)); assay: co-IP; endogenous proteins; ATG5-IP from lysates of HEK 293 T or MEF cells under control condition; RIPA lysate, antibody on protein A or G agarose, overnight at 4 °C
[6] = target: T1, ATG5-12 (endogenous ATG12-ATG5 conjugate of HEK 293 T cells) (human (endogenous in HEK 293 T)); assay: co-IP; endogenous proteins; ATG5-IP from lysates of HEK 293 T or MEF cells treated with CCCP; RIPA lysate, antibody on protein A or G agarose, overnight at 4 °C
[7] = target: T1, ATG5-12 (endogenous ATG12-ATG5 conjugate of HEK 293 T cells) (human (endogenous in HEK 293 T)); assay: co-IP; immunoprecipitation of endogenous ATG5 from HA-PARK2 expressing HEK 293 T cells after DMSO or CCCP (10 μM) for 12 h
[8] = target: T2, ATG5-12 (endogenous ATG12-ATG5 conjugate of MEF cells) (mouse (endogenous in MEF)) (UniProt Q99J83+Q9CQY1); assay: co-IP; endogenous proteins; ATG5-IP from lysates of HEK 293 T or MEF cells under control condition; RIPA lysate, antibody on protein A or G agarose, overnight at 4 °C
[9] = target: T2, ATG5-12 (endogenous ATG12-ATG5 conjugate of MEF cells) (mouse (endogenous in MEF)); assay: co-IP; endogenous proteins; ATG5-IP from lysates of HEK 293 T or MEF cells treated with CCCP; RIPA lysate, antibody on protein A or G agarose, overnight at 4 °C
FLAG-PSMA7 = FLAG-PSMA7 (UniProt O14818); assay: co-IP; HEK 293 T cells co-transfected with MYC-PARK2 and/or FLAG-PSMA7, treated with STAURO (1 μM), CCCP (10 μM) or DMSO for 12 h; immunoprecipitation using Flag beads
[10] = target: ATG5 (full-length human Atg5 cDNA in the pGBKT7 bait vector) (human) (UniProt Q9H1Y0); assay: two-hybrid; full-length human Atg5 in pGBKT7 as bait screened against a thymus cDNA library in AH109 yeast; selection without histidine, adenine, tryptophan and leucin

Amino acid sequences for entries named in this document (tags omitted). A change or cut given only in a name is not applied to a line headed by its entry. Residues count along the entry.
UniProt Q9H1Y0: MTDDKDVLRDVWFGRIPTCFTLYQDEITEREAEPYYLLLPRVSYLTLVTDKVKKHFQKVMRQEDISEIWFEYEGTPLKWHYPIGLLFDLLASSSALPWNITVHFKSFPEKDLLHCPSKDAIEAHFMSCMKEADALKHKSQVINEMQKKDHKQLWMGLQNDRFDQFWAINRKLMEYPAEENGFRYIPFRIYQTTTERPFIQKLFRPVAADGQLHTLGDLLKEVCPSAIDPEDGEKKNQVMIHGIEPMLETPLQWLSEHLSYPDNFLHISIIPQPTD
UniProt O94817: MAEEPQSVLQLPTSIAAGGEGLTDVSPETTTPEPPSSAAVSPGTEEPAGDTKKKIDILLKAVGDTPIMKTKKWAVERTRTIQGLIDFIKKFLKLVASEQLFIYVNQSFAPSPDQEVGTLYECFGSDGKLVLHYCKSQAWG
UniProt Q99J83: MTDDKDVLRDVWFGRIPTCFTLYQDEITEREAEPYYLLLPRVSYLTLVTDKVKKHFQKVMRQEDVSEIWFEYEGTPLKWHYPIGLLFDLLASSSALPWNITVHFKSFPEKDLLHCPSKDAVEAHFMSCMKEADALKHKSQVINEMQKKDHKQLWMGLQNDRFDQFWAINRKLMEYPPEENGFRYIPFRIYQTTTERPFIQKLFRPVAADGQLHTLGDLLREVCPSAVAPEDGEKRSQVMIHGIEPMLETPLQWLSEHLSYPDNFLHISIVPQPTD
UniProt Q9CQY1: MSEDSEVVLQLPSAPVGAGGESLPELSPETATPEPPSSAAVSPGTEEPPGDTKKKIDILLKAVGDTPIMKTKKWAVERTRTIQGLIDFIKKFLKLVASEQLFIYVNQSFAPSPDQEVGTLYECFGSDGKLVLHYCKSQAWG
UniProt O14818: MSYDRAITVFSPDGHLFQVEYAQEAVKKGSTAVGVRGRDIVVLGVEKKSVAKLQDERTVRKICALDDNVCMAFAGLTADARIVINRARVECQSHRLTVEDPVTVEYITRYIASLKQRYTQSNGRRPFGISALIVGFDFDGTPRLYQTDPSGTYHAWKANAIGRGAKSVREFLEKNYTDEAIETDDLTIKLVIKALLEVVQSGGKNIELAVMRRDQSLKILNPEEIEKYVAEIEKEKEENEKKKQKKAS
UniProt O60260: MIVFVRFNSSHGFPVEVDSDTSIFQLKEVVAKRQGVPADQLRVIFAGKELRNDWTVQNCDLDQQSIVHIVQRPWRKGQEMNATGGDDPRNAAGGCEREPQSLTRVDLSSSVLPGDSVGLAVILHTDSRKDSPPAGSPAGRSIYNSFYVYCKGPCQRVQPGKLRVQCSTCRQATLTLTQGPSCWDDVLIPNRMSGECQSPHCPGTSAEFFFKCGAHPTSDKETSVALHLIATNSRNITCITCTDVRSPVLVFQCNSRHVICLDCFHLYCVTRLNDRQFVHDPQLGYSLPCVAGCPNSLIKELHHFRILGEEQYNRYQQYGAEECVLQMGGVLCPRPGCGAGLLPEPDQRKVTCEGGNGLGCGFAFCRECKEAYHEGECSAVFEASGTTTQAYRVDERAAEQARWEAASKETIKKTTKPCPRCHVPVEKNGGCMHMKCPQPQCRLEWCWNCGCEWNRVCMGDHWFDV
UniProt P21796: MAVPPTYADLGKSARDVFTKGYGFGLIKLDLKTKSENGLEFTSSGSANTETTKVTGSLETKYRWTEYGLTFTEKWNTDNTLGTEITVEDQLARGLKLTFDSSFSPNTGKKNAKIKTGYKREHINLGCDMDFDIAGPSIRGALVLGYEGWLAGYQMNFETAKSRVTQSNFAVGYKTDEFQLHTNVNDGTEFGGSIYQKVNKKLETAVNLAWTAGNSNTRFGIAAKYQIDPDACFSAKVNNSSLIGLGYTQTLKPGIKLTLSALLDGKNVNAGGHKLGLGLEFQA
UniProt Q9Z2U0: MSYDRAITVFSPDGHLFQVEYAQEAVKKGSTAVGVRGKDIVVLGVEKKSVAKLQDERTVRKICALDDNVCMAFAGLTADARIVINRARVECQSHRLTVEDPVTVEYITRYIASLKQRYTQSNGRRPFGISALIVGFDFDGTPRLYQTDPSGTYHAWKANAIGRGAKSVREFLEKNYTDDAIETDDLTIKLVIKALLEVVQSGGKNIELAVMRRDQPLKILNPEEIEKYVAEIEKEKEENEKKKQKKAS
UniProt Q9BXM7, residues 78-581: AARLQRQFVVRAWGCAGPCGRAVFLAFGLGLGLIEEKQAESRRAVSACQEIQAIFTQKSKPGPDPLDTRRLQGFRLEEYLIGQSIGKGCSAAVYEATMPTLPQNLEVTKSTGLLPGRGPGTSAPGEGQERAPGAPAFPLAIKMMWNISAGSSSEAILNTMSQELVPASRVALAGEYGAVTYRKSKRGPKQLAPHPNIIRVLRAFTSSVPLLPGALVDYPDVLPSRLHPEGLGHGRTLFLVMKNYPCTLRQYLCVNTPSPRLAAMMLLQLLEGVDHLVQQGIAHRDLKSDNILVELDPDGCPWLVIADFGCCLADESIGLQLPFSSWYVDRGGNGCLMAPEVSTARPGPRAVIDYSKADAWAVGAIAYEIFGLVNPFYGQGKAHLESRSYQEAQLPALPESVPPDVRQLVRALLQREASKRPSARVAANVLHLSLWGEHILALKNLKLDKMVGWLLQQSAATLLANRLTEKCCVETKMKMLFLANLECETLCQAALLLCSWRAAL

“PARK2 (endogenous, SH-SY5Y cells) (from UniProt O60260 1-465)” was tested, and the binding [1] was “binds”.

With “VDAC1 (endogenous, HEK 293 T cells) (from UniProt P21796 1-283)” the binding [2] was “binds”.

For “PSMA7, full length, overexpressed in HEK293T cells (Fig. S1A and B) (from UniProt O14818 1-248)”, the binding [3] was “binds”.

“PARK2, overexpressed (gel filtration of total cell lysates and cytosolic fractions, Fig. S2) (from UniProt O60260 1-465)” was tested, and the binding [4] was “binds”.

“PSMA7 (endogenous, HEK 293 T cells) (from UniProt O14818 1-248)” was tested, and the binding [5] was “binds weakly” and the binding [6] was “binds”.

HA-PARK2 (from UniProt O60260 1-465) was tested, and the binding [7] was “binds”.

“PSMA7 (endogenous, MEF cells) (from UniProt Q9Z2U0 1-248)” was tested, and the binding [8] was “binds weakly” and the binding [9] was “binds”.

With YFP-PARK2 (from UniProt O60260 1-465) the binding [2] was “binds”.

MYC-PARK2 (from UniProt O60260 1-465) was tested, and the binding (FLAG-PSMA7) was “binds”.

“PARK6 (endogenous, HEK 293 T cells) (from UniProt Q9BXM7 78-581)” was tested, and the binding [2] was “binds”, the binding [7] was “binds” and the binding [4] was “binds”.

“PSMA7 amino acids 174-248 (two-hybrid clone 47) (from UniProt O14818 174-248) (domain or fragment)” was tested, and the binding [10] was “binds”.

Reference: publication PMC9649694
